Test results: PubChem BioAssay AID2685 (National Center for Advancing Translational Sciences (NCATS), 2010)
The other results are listed elsewhere or left out. The main result of the screen is listed elsewhere. These columns were measured beside it and carry no call. Most of these compounds were active or inconclusive in the main read-out, so they are no random draw. Potencies come from curve fits of mixed quality, noted in brackets.

Experiment: qHTS Assay for Lipid Storage Modulators in Drosophila S3 Cells;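 on cell number change: cells counted by Cell Tracker Red CMTPX staining in the red channel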
Settings: BODIPY lipid droplet fluorescence, 18-24 h; for cell number change: measured here: cell count max response, cells fed with added oleic acid
Outline: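 Drosophila S3 cells got compounds at several concentrations plus oleic acid (400 uM solution). Laser-scanning cytometry with 488 nm excitation read lipid droplets at 500-530 nm and cells at 575-640 nm. Percent activity was relative to 20 uM Triacsin C.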

[1] = measured here: lipid fluorescence (Fed channel) AC50, cells fed with added oleic acid
[2] = measured here: cell number channel AC50, cells fed with added oleic acid

CS(=O)(=O)c1ccc(Cl)c(NC(=O)COC(=O)c2c(Cl)cccc2Cl)c1 gave a cell number change of -27.6%.

In the case of CN1C(C(=O)NCc2cccc(C(F)(F)F)c2)CC2Cn3c(nc4cc5ccccc5cc43)C21 (stereo not drawn), the cell number change is reported as 28.4% and the AC50 [1] is reported as 8.2 µM [rising, partial curve].

For COc1ccc(S(=O)(=O)N2CCN(C(=O)c3c(C)nn(-c4ccccc4)c3C)CC2)cc1, the cell number change was 13.7% and the AC50 [1] was 7.31 µM [falling, partial curve, poor fit].

For O=C(Nc1ccc(C(=O)O)cc1)/C(=C/c1ccc2c(c1)OCO2)NC(=O)c1cccc(Br)c1, the cell number change was 31%, the AC50 [2] was 0.00461 µM [rising, full curve, poor fit] and the AC50 [1] was 1.3 µM [rising, partial curve].

For Cc1c(N(C)S(=O)(=O)c2cc(C(=O)NCC3CCCO3)ccc2Cl)c(=O)n(-c2ccccc2)n1C (stereo not drawn), the cell number change was -30.7%, the AC50 [2] was 29.1 µM [falling, single point] and the AC50 [1] was 29.1 µM [falling, single point].

With CCOC(=O)c1c(-c2cccc(C)c2)csc1NC(=O)C1CC=CCC1C(=O)O (stereo not drawn) the cell number change was -17.1% and the AC50 [1] was 1.46 µM [rising, partial curve].

Work on CC(=O)OC(C)[C@H]1CC[C@H]2[C@@H]3CC[C@H]4C[C@@H](OC(C)=O)CC[C@]4(C)C3=CC[C@]12C (stereo partly drawn) yielded a cell number change of 21.7%.

For COc1ccc(OC)c(NC(=O)Cn2cc(C(=O)c3ccco3)c3ccccc32)c1, the cell number change was 12.4% and the AC50 [1] was 2.06 µM [rising, full curve].

In the case of CCO[C@@H]1c2c(ccc3ccc(=O)oc23)OC(C)(C)[C@H]1O, the cell number change is reported as 5.29% and the AC50 [1] is reported as 20.6 µM [rising, single point].

For COc1cc2c(cc1OC)CN(C(=O)CN1C(=O)NC3(CCC(C)CC3)C1=O)CC2 (stereo not drawn), the cell number change was -17% and the AC50 [2] was 0.291 µM [falling, full curve, poor fit].

In the case of O=C(CSc1nnc(C2CC2)n1-c1ccccc1)N1CCNC1=O, the cell number change is reported as -9.65% and the AC50 [1] is reported as 6.51 µM [rising, single point].

In the case of C/C(=N\NC(=O)c1cccnc1)c1cc(C)oc1C, the cell number change is reported as 13.4%, the AC50 [2] is reported as 0.13 µM [rising, full curve, poor fit] and the AC50 [1] is reported as 0.116 µM [rising, partial curve, poor fit].

Work on COc1ccc(CC(=O)OCN2C(=O)c3ccccc3C2=O)cc1OC yielded a cell number change of 9.83%.

In the case of COn1c(SCc2ccc(C)cc2C)nc2ccccc2c1=O, the cell number change is reported as 14.3% and the AC50 [1] is reported as 20.6 µM [rising, single point].

In the case of COc1ccccc1-n1c(SCC(=O)O)nc2c(sc(=S)n2-c2ccc(Cl)c(C)c2)c1=O, the cell number change is reported as 19.7% and the AC50 [2] is reported as 0.13 µM [rising, full curve, poor fit].

For COc1ccc(CCNC(=O)Cc2c(Cl)cccc2Cl)cc1, the AC50 [2] was 6.51 µM [rising, single point] and the AC50 [1] was 6.51 µM [rising, single point].

For CCCNC(=O)C(Cc1cccc(C#N)c1)NC(=O)c1ccc(C#N)cc1 (stereo not drawn), the cell number change was 16.3% and the AC50 [1] was 32.6 µM [rising, single point].

In the case of Cn1c(=O)[nH]c(=O)c2c1nc(NCCc1ccccc1)n2CC(O)COc1ccccc1 (stereo not drawn), the cell number change is reported as -25%.

In the case of N=c1nc(N)nc2n1NC(c1ccc(F)cc1)=CS2, the cell number change is reported as -13.1% and the AC50 [1] is reported as 16.4 µM [falling, partial curve].

For CCCN1CCN(CC(=O)NCC(=O)Nc2cccc(C)c2C)CC1, the cell number change was -16.5%.

With O=C(O)CCCC(=O)NCCc1ccncc1 the cell number change was -181%, the AC50 [2] was 18.4 µM [falling, partial curve] and the AC50 [1] was 0.58 µM [falling, single point].

Work on O=C(NCC(=O)N(CC1CCCO1)C1(C(=O)NC2CCCC2)CCCCC1)c1ccccc1 (stereo not drawn) yielded a cell number change of -14.6%.

In the case of CSc1ccc(CN2CCN(CC=C(C)C)C(CCO)C2)cc1 (stereo not drawn), the cell number change is reported as -41.7%, the AC50 [2] is reported as 18.4 µM [falling, single point] and the AC50 [1] is reported as 29.1 µM [falling, single point].

For Cc1csc(SCC(=O)NC(=O)NC2CCCC2)n1, the cell number change was 28% and the AC50 [1] was 0.231 µM [rising, full curve, poor fit].

With CCN(CC)S(=O)(=O)c1ccc2[nH]c(=O)c3ccccc3c2c1 the cell number change was -17% and the AC50 [1] was 13 µM [rising, partial curve].

Compound COCCCN1C(=O)c2ccc(C(=O)Nc3ccc(OC)cc3)cc2C1=O has a cell number change of 22.1%.

In the case of CCCCCCSc1cc(-c2nc3ccc(Cl)cn3c2NC2CCCCC2)ccc1OC, the cell number change is reported as -8.74% and the AC50 [1] is reported as 14.6 µM [rising, partial curve].

For CCN(C(=O)COC(=O)c1oc2ccccc2c1C)c1c(N)n(Cc2ccccc2)c(=O)[nH]c1=O, the cell number change was -11.1% and the AC50 [1] was 29.1 µM [falling, single point].

In the case of CCCn1nc(C(=O)NC2CCCCCC2)c2ccccc2c1=O, the cell number change is reported as -42.7%, the AC50 [2] is reported as 18.4 µM [falling, single point] and the AC50 [1] is reported as 16.4 µM [falling, single point].

In the case of CCN(CCNC(=O)c1ccc(C#N)cc1)c1cccc(C)c1, the cell number change is reported as -14.5% and the AC50 [1] is reported as 7.08 µM [rising, partial curve].

For Cc1ccc(NC(=O)c2sccc2C)nc1, the cell number change was -2.93% and the AC50 [1] was 29.1 µM [rising, single point].

COc1ccc(NC(=O)c2sccc2-n2cccc2)cc1 showed a cell number change of 65.2%.

For O=C(COc1ccc(Br)cc1)Nc1ccccc1N1CCCC1, the AC50 [1] was 1.03 µM [falling, single point].

With O=S(=O)(c1ccc(Br)s1)N1CCC2(CC1)OCCO2 the cell number change was 10.5% and the AC50 [1] was 2.06 µM [falling, single point].

In the case of Cc1c(C#N)c2ccccc2n1CC(=O)NC(C)c1ccccc1 (stereo not drawn), the cell number change is reported as 23.7% and the AC50 [1] is reported as 5.17 µM [rising, partial curve].

For COC(=O)c1sc(NC(=O)C(C)c2ccccc2)nc1C (stereo not drawn), the cell number change was 12.3% and the AC50 [1] was 29.1 µM [rising, partial curve, poor fit].

For COc1cc(C2C3=C(Nc4ncnn42)c2ccccc2CC3)cc(OC)c1OC (stereo not drawn), the cell number change was -26.2% and the AC50 [1] was 4.61 µM [falling, full curve, poor fit].

In the case of O=C(COc1ccc(=O)n(-c2ccccc2)n1)Nc1ccccc1, the AC50 [1] is reported as 18.4 µM [rising, single point].

For Cc1ccc(Oc2ccccc2/C=C/C(=O)O)cc1, the cell number change was -8.7%, the AC50 [2] was 3.66 µM [falling, single point] and the AC50 [1] was 18.4 µM [falling, partial curve].

For COc1cccc(OC)c1-c1nn(-c2ncc(C(F)(F)F)cc2Cl)c(=O)o1, the AC50 [1] was 32.6 µM [rising, single point].

With COCCCNc1nc2ccccc2nc1NS(=O)(=O)c1cccc(C)c1 the cell number change was 13.9% and the AC50 [1] was 13 µM [rising, partial curve, poor fit].

With Cc1ccc(S(=O)(=O)N2CCN(Cc3cc4c(cc3Br)OCCO4)CC2)cc1 the cell number change was 10.1% and the AC50 [1] was 32.6 µM [rising, single point].

With Cc1cc(NC(=O)c2cnn3c(C(F)(F)F)cc(-c4ccccc4)nc23)no1 the cell number change was -17.6% and the AC50 [1] was 29.1 µM [falling, single point].

In the case of COc1cc(CNCCCN2CCOCC2)ccc1OCC(=O)NC(C)(C)C, the cell number change is reported as 32.3% and the AC50 [2] is reported as 29.1 µM [rising, single point].

With O=C(CN(C(=O)c1csnn1)c1cccc(F)c1)NC1CCCC1 the cell number change was 13.9%.

In the case of C[C@@H](NC(=O)c1[nH]cnc1C(=O)Nc1ccccc1)c1ccccc1, the cell number change is reported as -62.7%, the AC50 [2] is reported as 4.61 µM [falling, single point] and the AC50 [1] is reported as 25.9 µM [falling, single point].

For CN(C)S(=O)(=O)c1cc(NC(=O)CSc2nn(-c3ccc(Cl)cc3)c(=S)s2)ccc1Cl, the cell number change was -33.3% and the AC50 [2] was 0.13 µM [falling, full curve, poor fit].

For Cc1ccc(NC(=O)C2CCN(S(C)(=O)=O)CC2)c(C)c1, the cell number change was 4.23% and the AC50 [1] was 3.26 µM [rising, full curve].

For CC1(C)CC(NC(=O)c2cccc3ccccc23)CC(C)(C)N1, the cell number change was 5.89%.

For O=c1[nH]c(CN2CCc3ccccc3C2)nc2ccccc12, the cell number change was 1.88%.

For Fc1ccc(Nc2nnc(C(F)(F)F)s2)cc1Cl, the cell number change was -66.4%, the AC50 [2] was 20.6 µM [falling, single point] and the AC50 [1] was 25.9 µM [falling, single point].

With Cc1ccccc1-c1nc(CS(=O)(=O)CC(=O)NC(C)c2ccccc2)c(C)o1 (stereo not drawn) the cell number change was -8.4% and the AC50 [1] was 29.1 µM [rising, single point].

With CN(Cc1cccs1)S(=O)(=O)c1cccs1 the cell number change was 1.22% and the AC50 [1] was 29.1 µM [falling, single point].

For CN(C)C(=O)/C=C\c1cn(-c2ccccc2)nc1-c1ccc2c(c1)OCCO2, the cell number change was 16.2%.

In the case of O=C(/C=C/c1ccc(Br)cc1)NC1CCCCCC1, the cell number change is reported as -16%, the AC50 [2] is reported as 6.51 µM [rising, partial curve] and the AC50 [1] is reported as 1.3 µM [falling, partial curve].

Compound C=CCOc1cccc(/C=N/NC(=O)CN2CCCCC2)c1 has a cell number change of -2.7%.

In the case of Cc1cc(C)c2nc(N3CCN(C)CC3)c(C#N)cc2c1, the cell number change is reported as 31.8% and the AC50 [2] is reported as 10.3 µM [rising, single point].

For COc1ccc(C)cc1N(C)C(=O)Cc1c(C(=O)O)n(C)c2ccccc12, the AC50 [1] was 29.1 µM [rising, single point].

With COc1ccc(CCNC(=O)c2c(O)c3ccccc3[nH]c2=O)cc1 the cell number change was -18.8% and the AC50 [1] was 0.058 µM [falling, full curve, poor fit].

With CCC1(c2ccccc2)C(=O)N(C(=O)OC(C)(C)C)N1C(=O)OC(C)(C)C (stereo not drawn) the cell number change was -30.2% and the AC50 [1] was 0.0082 µM [falling, full curve, poor fit].

In the case of CNC(=O)N1CCN(C(=O)NC)CC1, the cell number change is reported as -11.8% and the AC50 [1] is reported as 9.2 µM [falling, partial curve].

For O=C(CCn1c(=S)oc2ccccc21)N1CCCCC1, the cell number change was -10%.

In the case of Cc1ccc2cc(CN(C)C(=O)C3CCCO3)c(=O)[nH]c2c1 (stereo not drawn), the cell number change is reported as -6.33% and the AC50 [1] is reported as 0.13 µM [rising, full curve, poor fit].
